With `CCC[C@H](NC(=O)OC(C)(C)C)C(=O)O`, the melting point (usually the temperature, or range, at which the solid turns liquid) lay within 43 to 47 °C.
